Our source for the melting temperature shift values is the supplement of paper PMC12595434, “Development of retinoid nuclear receptor pathway antagonists through targeting aldehyde dehydrogenase 1A3” (iScience, 2025).

Protein sequences, listed by entry. Tags and fused reporters are not part of them. Lines headed by an entry give the natural chain unless they say otherwise; changes in a name come on top.
UniProt O75387: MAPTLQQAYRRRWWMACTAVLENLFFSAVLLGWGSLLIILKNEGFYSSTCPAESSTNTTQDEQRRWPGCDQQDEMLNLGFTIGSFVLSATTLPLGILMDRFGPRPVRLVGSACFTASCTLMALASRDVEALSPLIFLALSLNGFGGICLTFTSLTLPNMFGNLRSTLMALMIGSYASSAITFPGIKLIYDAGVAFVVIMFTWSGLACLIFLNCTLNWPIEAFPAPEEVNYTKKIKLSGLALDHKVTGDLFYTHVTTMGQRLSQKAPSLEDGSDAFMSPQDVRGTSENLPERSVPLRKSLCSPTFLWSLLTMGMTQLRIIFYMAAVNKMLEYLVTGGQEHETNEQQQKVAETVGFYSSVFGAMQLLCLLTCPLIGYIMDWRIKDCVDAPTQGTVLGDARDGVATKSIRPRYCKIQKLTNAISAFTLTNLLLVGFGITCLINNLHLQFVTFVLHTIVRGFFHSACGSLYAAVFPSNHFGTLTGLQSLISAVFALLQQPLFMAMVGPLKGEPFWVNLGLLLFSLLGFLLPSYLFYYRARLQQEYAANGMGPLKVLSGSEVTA
UniProt O75808: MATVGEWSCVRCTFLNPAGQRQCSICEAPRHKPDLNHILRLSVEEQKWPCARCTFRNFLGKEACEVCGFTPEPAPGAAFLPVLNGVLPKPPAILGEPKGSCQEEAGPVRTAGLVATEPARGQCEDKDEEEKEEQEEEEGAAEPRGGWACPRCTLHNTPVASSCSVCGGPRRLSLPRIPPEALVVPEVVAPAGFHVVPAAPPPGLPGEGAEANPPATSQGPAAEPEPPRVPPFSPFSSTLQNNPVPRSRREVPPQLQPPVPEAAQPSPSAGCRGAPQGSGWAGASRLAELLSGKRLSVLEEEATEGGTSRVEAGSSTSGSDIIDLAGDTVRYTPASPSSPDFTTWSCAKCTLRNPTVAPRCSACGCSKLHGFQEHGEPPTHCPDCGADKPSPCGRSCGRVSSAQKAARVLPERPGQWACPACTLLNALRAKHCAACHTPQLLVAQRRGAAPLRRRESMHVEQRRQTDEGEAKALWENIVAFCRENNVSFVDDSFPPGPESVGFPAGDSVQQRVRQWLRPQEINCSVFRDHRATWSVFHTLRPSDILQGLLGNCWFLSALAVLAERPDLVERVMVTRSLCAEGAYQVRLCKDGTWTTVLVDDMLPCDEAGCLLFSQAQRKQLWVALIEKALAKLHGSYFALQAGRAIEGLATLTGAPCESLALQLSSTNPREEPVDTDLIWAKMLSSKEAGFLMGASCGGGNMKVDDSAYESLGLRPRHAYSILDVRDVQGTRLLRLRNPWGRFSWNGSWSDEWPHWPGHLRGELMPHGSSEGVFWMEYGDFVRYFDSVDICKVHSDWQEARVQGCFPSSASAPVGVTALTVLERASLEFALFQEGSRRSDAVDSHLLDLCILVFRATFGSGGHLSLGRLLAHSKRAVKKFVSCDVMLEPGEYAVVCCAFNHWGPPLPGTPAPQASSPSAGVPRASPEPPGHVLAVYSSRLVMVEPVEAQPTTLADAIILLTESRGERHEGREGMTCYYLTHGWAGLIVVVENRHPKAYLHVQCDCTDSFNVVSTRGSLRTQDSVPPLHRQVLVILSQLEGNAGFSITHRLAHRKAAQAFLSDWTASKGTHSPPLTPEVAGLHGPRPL
UniProt O43813, whole entry: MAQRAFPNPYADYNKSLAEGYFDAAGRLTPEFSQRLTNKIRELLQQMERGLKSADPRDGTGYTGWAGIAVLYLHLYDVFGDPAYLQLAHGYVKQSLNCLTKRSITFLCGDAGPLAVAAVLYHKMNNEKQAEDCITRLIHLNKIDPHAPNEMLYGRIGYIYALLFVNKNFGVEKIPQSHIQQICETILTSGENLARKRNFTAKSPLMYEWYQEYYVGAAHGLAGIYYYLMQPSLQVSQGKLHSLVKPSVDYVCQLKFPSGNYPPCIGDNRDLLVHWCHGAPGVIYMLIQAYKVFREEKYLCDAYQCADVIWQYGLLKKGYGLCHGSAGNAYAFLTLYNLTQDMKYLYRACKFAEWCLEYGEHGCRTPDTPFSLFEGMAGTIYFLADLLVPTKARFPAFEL
UniProt O75386: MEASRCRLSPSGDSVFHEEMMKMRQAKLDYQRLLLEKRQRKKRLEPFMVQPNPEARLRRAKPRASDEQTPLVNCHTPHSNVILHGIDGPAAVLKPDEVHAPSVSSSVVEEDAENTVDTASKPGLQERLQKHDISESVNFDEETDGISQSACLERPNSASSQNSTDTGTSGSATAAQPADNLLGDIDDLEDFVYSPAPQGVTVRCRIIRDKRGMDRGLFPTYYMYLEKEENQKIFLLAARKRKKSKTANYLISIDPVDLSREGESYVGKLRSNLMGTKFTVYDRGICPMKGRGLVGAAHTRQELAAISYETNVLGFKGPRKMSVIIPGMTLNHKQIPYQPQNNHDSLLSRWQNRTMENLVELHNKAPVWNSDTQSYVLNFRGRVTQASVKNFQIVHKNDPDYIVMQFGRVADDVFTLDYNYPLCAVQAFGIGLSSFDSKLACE
UniProt O75063: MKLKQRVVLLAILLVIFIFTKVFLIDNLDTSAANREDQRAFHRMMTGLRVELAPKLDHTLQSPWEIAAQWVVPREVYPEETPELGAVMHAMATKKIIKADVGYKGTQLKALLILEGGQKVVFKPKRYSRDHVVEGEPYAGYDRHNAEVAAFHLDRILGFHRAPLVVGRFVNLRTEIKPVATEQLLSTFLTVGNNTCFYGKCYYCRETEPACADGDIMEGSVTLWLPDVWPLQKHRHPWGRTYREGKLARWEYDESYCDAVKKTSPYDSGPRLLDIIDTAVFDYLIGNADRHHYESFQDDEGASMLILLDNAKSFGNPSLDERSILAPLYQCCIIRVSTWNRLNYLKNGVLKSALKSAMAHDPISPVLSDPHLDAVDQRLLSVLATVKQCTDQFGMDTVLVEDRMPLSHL
UniProt O75746: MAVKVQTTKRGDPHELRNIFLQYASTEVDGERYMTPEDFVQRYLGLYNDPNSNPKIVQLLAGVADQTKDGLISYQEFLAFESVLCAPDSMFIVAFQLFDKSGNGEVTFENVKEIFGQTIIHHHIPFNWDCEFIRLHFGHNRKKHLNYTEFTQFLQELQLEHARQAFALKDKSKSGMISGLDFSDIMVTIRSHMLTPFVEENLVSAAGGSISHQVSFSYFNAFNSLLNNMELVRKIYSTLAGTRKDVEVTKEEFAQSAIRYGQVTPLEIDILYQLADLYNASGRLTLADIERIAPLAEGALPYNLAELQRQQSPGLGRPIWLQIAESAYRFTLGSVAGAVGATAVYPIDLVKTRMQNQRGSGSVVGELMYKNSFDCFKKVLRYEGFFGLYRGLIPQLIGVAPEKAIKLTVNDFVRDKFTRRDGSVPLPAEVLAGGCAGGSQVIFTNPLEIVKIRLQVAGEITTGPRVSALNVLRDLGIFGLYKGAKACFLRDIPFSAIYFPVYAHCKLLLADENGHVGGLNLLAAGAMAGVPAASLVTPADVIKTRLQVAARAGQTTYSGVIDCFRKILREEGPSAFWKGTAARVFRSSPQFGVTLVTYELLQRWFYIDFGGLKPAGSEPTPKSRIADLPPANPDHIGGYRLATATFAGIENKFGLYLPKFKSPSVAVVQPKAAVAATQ
UniProt O75787, whole entry: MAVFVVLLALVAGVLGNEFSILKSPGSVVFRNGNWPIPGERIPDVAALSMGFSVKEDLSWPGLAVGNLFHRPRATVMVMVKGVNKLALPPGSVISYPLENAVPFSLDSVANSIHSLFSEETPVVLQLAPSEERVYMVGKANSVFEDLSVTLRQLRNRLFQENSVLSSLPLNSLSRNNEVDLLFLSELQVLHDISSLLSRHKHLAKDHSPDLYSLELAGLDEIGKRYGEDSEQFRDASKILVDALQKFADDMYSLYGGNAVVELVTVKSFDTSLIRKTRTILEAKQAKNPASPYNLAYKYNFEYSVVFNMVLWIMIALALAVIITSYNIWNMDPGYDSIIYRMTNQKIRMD
UniProt O60701: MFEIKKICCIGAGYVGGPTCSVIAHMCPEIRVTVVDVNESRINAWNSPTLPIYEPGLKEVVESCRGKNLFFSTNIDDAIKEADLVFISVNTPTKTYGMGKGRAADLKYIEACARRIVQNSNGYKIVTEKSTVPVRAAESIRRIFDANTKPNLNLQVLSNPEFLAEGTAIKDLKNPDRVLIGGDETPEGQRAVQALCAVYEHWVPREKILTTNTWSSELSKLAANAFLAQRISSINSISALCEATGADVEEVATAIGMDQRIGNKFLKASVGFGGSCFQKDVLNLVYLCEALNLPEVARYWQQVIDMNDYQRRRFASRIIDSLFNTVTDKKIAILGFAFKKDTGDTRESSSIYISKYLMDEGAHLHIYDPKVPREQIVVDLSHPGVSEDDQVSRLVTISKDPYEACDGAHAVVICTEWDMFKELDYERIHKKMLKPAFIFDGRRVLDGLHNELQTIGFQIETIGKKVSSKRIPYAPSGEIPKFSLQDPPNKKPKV
UniProt O75071: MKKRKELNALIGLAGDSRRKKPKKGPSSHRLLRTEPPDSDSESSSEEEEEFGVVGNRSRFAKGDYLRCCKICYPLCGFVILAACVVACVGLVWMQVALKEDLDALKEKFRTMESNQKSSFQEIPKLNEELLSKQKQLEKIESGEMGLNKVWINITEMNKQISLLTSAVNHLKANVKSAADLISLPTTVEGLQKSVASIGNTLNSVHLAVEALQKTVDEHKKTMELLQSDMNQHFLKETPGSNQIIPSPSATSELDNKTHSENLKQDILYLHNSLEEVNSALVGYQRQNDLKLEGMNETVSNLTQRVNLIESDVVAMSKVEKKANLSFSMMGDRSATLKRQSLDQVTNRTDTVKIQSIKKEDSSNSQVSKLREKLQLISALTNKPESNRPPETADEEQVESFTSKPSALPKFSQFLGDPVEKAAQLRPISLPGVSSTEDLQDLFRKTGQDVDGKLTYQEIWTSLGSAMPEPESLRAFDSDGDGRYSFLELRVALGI
UniProt O60566, whole entry: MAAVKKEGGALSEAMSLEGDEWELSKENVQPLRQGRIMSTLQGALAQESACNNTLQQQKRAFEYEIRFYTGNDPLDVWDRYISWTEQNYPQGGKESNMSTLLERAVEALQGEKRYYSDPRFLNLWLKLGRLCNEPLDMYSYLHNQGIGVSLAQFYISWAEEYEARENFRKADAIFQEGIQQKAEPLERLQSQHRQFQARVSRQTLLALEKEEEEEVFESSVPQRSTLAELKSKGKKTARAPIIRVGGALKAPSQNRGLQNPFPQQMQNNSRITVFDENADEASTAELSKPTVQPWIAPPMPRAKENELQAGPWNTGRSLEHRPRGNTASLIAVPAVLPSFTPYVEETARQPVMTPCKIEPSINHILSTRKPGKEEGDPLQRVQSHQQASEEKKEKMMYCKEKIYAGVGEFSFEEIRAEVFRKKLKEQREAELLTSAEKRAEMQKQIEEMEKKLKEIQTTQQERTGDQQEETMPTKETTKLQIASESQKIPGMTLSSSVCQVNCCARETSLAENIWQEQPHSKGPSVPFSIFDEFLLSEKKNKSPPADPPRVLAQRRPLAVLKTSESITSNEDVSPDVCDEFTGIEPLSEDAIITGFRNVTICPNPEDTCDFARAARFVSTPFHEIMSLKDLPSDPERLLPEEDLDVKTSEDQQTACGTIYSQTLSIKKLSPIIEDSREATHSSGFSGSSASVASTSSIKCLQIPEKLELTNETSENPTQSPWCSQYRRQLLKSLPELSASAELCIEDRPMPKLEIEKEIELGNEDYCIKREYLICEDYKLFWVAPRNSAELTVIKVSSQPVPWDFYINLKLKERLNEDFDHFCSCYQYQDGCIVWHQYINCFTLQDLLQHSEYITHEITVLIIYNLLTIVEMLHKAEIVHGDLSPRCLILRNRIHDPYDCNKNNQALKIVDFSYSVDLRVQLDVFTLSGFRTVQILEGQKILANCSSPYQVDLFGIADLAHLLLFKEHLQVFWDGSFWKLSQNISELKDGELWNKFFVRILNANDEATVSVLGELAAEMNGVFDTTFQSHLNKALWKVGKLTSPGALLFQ
UniProt O75419: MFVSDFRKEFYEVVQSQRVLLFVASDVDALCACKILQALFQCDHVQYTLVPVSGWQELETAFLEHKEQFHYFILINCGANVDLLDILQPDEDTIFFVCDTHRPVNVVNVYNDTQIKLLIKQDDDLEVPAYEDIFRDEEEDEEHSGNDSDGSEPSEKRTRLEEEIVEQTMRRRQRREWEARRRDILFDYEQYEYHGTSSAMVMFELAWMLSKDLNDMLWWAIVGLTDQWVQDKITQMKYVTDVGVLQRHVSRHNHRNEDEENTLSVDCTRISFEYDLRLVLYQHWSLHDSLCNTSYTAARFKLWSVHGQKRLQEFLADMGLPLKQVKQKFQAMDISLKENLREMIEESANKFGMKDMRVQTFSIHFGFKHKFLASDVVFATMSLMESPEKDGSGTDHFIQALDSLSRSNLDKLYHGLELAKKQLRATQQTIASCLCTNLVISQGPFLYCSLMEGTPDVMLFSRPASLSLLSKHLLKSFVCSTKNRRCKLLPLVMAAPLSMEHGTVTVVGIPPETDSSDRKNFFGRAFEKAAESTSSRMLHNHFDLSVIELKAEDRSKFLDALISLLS

Some of the results follow. Single values of this set are uncertain.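 Tm was set to 64 °C where no melting was found, and many curves are irregular.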

Compound in the assay: CCc1cnccc1C(=O)Nc1cc2c(cc1F)NC(=O)CC2
In words: melting temperature shift (DMSO Tm minus MBE1-treated Tm) in cellular thermal proteome profiling; higher = less thermal stabilization by MBE1 (negative = stabilized by MBE1). Particulars: A375.

For the target UniProt O75387, the melting temperature shift is -5.2 °C (MBE1 concentration: 100 nM) and -3.3 °C (MBE1 concentration: 1 uM).
For DNAJC13 (UniProt O75165) the same measures were 1.37 °C and 0.342 °C.
In the same order, the values of HIP1R (UniProt O75146) are 3.3 °C and 2.09 °C.
In the same order, the values of CAPN15 (UniProt O75808) are 2.69 °C and -0.127 °C.
Turning to STRN (UniProt O43815), the melting temperature shift runs as follows: (MBE1 concentration: 100 nM) -0.463 °C; (MBE1 concentration: 1 uM) 0.44 °C.
In the same order, the values of RNGTT (UniProt O60942) are -0.865 °C and -0.638 °C.
In the case of LANCL1 (UniProt O43813), the melting temperature shift is -0.908 °C (MBE1 concentration: 100 nM) and -0.532 °C (MBE1 concentration: 1 uM).
For PRC1 (UniProt O43663) the same measures were -0.314 °C and -0.743 °C.
For TOM1 (UniProt O60784) the same measures were 0.446 °C and 0.14 °C.
TULP3 (UniProt O75386): the melting temperature shift is -0.0366 °C (MBE1 concentration: 100 nM) and -0.507 °C (MBE1 concentration: 1 uM).
In the same order, the values of NUP155 (UniProt O75694) are 1.29 °C and 1.05 °C.
For MARCH6 (UniProt O60337) the same measures were -0.443 °C and -0.0872 °C.
For PLOD3 (UniProt O60568), the melting temperature shift is -0.932 °C (MBE1 concentration: 100 nM) and 0.416 °C (MBE1 concentration: 1 uM).
For NDUFS3 (UniProt O75489) the same measures were -0.791 °C and 0.0794 °C.
In the same order, the values of UniProt O60287 are -0.737 °C and 0.391 °C.
In the case of UniProt O75037, the melting temperature shift is -0.513 °C (MBE1 concentration: 100 nM) and 0.147 °C (MBE1 concentration: 1 uM).
As for KIF1C (UniProt O43896), the melting temperature shift (MBE1 concentration: 100 nM) was determined as 0.226 °C and the melting temperature shift (MBE1 concentration: 1 uM) was -0.434 °C.
Regarding NBN (UniProt O60934), the melting temperature shift is -0.593 °C (MBE1 concentration: 100 nM) and -0.353 °C (MBE1 concentration: 1 uM).
For FAM20B (UniProt O75063) the same measures were 0.91 °C and 0.348 °C.
For CLN5 (UniProt O75503) the same measures were 0.127 °C and 0.503 °C.
In the case of PMPCB (UniProt O75439), the melting temperature shift reads like this: (MBE1 concentration: 100 nM) -0.295 °C; (MBE1 concentration: 1 uM) 0.282 °C.
For ABCB7 (UniProt O75027) the same measures were -0.221 °C and 0.495 °C.
In the same order, the values of HNRNPR (UniProt O43390) are -0.183 °C and -0.353 °C.
For UniProt O75461 the same measures were -1.67 °C and -0.474 °C.
Regarding PDE6D (UniProt O43924), the melting temperature shift runs as follows: (MBE1 concentration: 100 nM) 0.181 °C; (MBE1 concentration: 1 uM) -0.342 °C.
For SLC25A12 (UniProt O75746) the same measures were -0.644 °C and -1.84 °C.
In the same order, the values of EED (UniProt O75530) are -2.73 °C and -3.8 °C.
For UniProt O43829, the melting temperature shift reads like this: (MBE1 concentration: 100 nM) -1.05 °C; (MBE1 concentration: 1 uM) 3.89 °C.
For EXOC3 (UniProt O60645) the same measures were -0.4 °C and -0.103 °C.
As for H2AFY (UniProt O75367), the melting temperature shift is, setting by setting: (MBE1 concentration: 100 nM) -1.47 °C; (MBE1 concentration: 1 uM) 3.55 °C.
In the same order, the values of GBAS (UniProt O75323) are -0.731 °C and -0.134 °C.
Take MTX2 (UniProt O75431): the melting temperature shift runs as follows: (MBE1 concentration: 100 nM) -0.952 °C; (MBE1 concentration: 1 uM) 0 °C.
For SRSF10 (UniProt O75494) the same measures were -0.464 °C and -0.471 °C.
In the same order, the values of ATP6AP2 (UniProt O75787) are -0.563 °C and 0.305 °C.
For ZNF217 (UniProt O75362) the same measures were 0.33 °C and 0.782 °C.
Regarding DHX16 (UniProt O60231), the melting temperature shift (MBE1 concentration: 100 nM) stood at 1.67 °C and the melting temperature shift (MBE1 concentration: 1 uM) amounted to 0.623 °C.
TOM1L1 (UniProt O75674): the melting temperature shift (MBE1 concentration: 100 nM) was -0.309 °C and the melting temperature shift (MBE1 concentration: 1 uM) was 0.226 °C.
Regarding VPS4B (UniProt O75351), the melting temperature shift is, setting by setting: (MBE1 concentration: 100 nM) 0.537 °C; (MBE1 concentration: 1 uM) -0.366 °C.
For the target CDC123 (UniProt O75794), the melting temperature shift was found to be 0.867 °C (MBE1 concentration: 100 nM) and 0.69 °C (MBE1 concentration: 1 uM).
As for UGDH (UniProt O60701), the melting temperature shift is, setting by setting: (MBE1 concentration: 100 nM) -0.59 °C; (MBE1 concentration: 1 uM) 0.335 °C.
For the target NDUFB5 (UniProt O43674), the melting temperature shift runs as follows: (MBE1 concentration: 100 nM) -1.06 °C; (MBE1 concentration: 1 uM) -0.33 °C.
For DIAPH1 (UniProt O60610) the same measures were -0.386 °C and -0.263 °C.
In the same order, the values of STX10 (UniProt O60499) are -1.24 °C and -0.409 °C.
Consider MGRN1 (UniProt O60291), for which the melting temperature shift by setting is: (MBE1 concentration: 100 nM) -2.37 °C; (MBE1 concentration: 1 uM) 1.01 °C.
For LYPLA1 (UniProt O75608), the melting temperature shift by setting is: (MBE1 concentration: 100 nM) -0.629 °C; (MBE1 concentration: 1 uM) 0.501 °C.
In the same order, the values of CCNT1 (UniProt O60563) are -0.177 °C and 0.806 °C.
For UniProt O75354, the melting temperature shift (MBE1 concentration: 100 nM) was -2.37 °C and the melting temperature shift (MBE1 concentration: 1 uM) was -1.98 °C.
For BCAR3 (UniProt O75815) the same measures were -0.167 °C and -0.416 °C.
In the case of EFCAB14 (UniProt O75071), the melting temperature shift by setting is: (MBE1 concentration: 100 nM) -3.61 °C; (MBE1 concentration: 1 uM) 0.892 °C.
Take SYNJ1 (UniProt O43426): the melting temperature shift runs as follows: (MBE1 concentration: 100 nM) 0.824 °C; (MBE1 concentration: 1 uM) 0.195 °C.
In the same order, the values of UniProt O60507 are 0.778 °C and 0.177 °C.
For the target UniProt O75326, the melting temperature shift reads like this: (MBE1 concentration: 100 nM) -1.41 °C; (MBE1 concentration: 1 uM) -1.25 °C.
For LIAS (UniProt O43766) the same measures were -1.47 °C and -2.66 °C.
In the same order, the values of TSC22D2 (UniProt O75157) are -1.04 °C and 0.81 °C.
In the same order, the values of DNPH1 (UniProt O43598) are -6.51 °C and -3.77 °C.
As for DNAJC6 (UniProt O75061), the melting temperature shift by setting is: (MBE1 concentration: 100 nM) 0.0427 °C; (MBE1 concentration: 1 uM) 0.128 °C.
For WDR1 (UniProt O75083) the same measures were -0.396 °C and -0.241 °C.
Take UniProt O60711: the melting temperature shift (MBE1 concentration: 100 nM) was found to be 2.1 °C and the melting temperature shift (MBE1 concentration: 1 uM) was -1.4 °C.
For OPA1 (UniProt O60313), the melting temperature shift is -0.375 °C (MBE1 concentration: 100 nM) and 0.342 °C (MBE1 concentration: 1 uM).
For SYNCRIP (UniProt O60506) the same measures were 0.104 °C and 0.293 °C.
With BUB1B (UniProt O60566), the melting temperature shift by setting is: (MBE1 concentration: 100 nM) -0.0988 °C; (MBE1 concentration: 1 uM) -0.372 °C.
Take CDC45 (UniProt O75419): the melting temperature shift is -0.878 °C (MBE1 concentration: 100 nM) and -0.436 °C (MBE1 concentration: 1 uM).
For UniProt O43715 the same measures were 0.235 °C and -5.01 °C.
In the same order, the values of UniProt O75487 are 0.055 °C and 6 °C.
In the same order, the values of UniProt O60292 are -0.96 °C and -0.235 °C.
As for UniProt O60613, the melting temperature shift is -1.43 °C (MBE1 concentration: 100 nM) and 0.47 °C (MBE1 concentration: 1 uM).
For TRAPPC3 (UniProt O43617) the same measures were 0.0134 °C and -1.17 °C.
Consider IDH3B (UniProt O43837), for which the melting temperature shift runs as follows: (MBE1 concentration: 100 nM) -0.436 °C; (MBE1 concentration: 1 uM) 0.52 °C.
In the same order, the values of DENR (UniProt O43583) are -2.73 °C and -1.92 °C.
